According to patent US8765096B2, “Methods and compositions for treating and diagnosing kidney disease” (Endocyte, Inc, priority 2007, dated 2014):
At least one peptide structure holds a part that was inferred or is arguable (an end, a ring closure or a residue).

Columns and labels:
mTOR pathway = test: P-S6 immunofluorescence in KB cells; format: cell-based; settings: 2, 10, or 50 nM, 16 hours of incubation
mTOR = test: P-S6 and P-S6K immunoblots in folate receptor-positive KB cells; format: cell-based; settings: 16 hours
bpk-mutant mouse model = test: Therapeutic effect on in vivo development of polycystic kidney disease; settings: 3 μmol/kg i.p. daily
[1] = bpk mutant mice, relative to untreated bpk mice, day 7 to 21

CO[C@H]1C[C@@H]2CC[C@@H](C)[C@@](O)(O2)C(=O)C(=O)N2CCCC[C@H]2C(=O)O[C@H]([C@H](C)C[C@@H]2CC[C@@H](O)[C@H](OC)C2)CC(=O)[C@H](C)/C=C(\C)[C@@H](OC(=O)OCCSSC[C@H](NC(=O)[C@H](CC(=O)O)NC(=O)[C@H](CC(=O)O)NC(=O)[C@H](CCCNC(=N)N)NC(=O)[C@H](CC(=O)O)NC(=O)CC[C@H](NC(=O)c2ccc(NCc3cnc4nc(N)[nH]c(=O)c4n3)cc2)C(=O)O)C(=O)O)[C@@H](OC)C(=O)[C@H](C)C[C@H](C)/C=C/C=C/C=C/1C [EC0371]
P-S6 immunostaining (phosphorylation of P-S6 through the mTOR pathway) (mTOR pathway): inhibit P-S6 immunostaining | phosphorylation of ribosomal S6 and S-6 kinase (T389), immunoblot (mTOR; KB cells, 2, 10, and 50 nM): abolish or greatly reduce phosphorylation | inhibition of mTOR in cultured cells (mTOR; folate receptor-positive KB cells, 2, 10, or 50 nM): highly effective in inhibiting mTOR | one-kidney weight as a percentage of total body weight (bpk-mutant mouse model; [1]): significant decrease in one-kidney weight | two-kidney weight as a percentage of total body weight (bpk-mutant mouse model; [1]): significant decrease in two-kidney weight | kidney size (bpk-mutant mouse model; bpk mutant mouse, postnatal day 7 to day 21): greatly reduces kidney size | PKD phenotype (kidney size, proportion of kidney(s) to whole body weight) (bpk-mutant mouse model; bpk-mutant mice, day 7 to 21): significantly improve the PKD phenotype
